Results as given in patent publication US20120034231A1.
No constants are given. Whether binding was seen depends on the method and setting. Some binding calls cover weakened binding; strength is not graded here.

Target: cynomolgus IL12Rβ1 (cynomolgus)
Experiment: FACS on HEK293 and Jurkat cells expressing cyno IL12Rβ1

B1: MOR05286 Fab (Fab, V domains shown)
VH: QVQLKESGPALVKPTQTLTLTCTFSGFSLSTSGMGVSWIRQPPGKALEWLALIDWTDDKYYSTSLKTRLTISKDTSKNQVVLTMTNMDPVDTATYYCARTVGKGLYRVDNWGQGTLVTVSS
VL: DIELTQPPSVSVAPGQTARISCSGDNLGSKFAYWYQQKPGQAPVLVIYDDSKRPSGIPERFSGSNSGNTATLTISGTQAEDEADYYCQSWDSSSGNDVFGGGTKLTVLG
  binding: binds
